# Measurements from publication PMC8931250, “A SURF4-to-proteoglycan relay mechanism that mediates the sorting and secretion of a tagged variant of sonic hedgehog” (Proceedings of the National Academy of Sciences of the …, 2022).
# By UniProt entry, the sequences of proteins in these tests, tags left out. Residues count along the entry.
# UniProt Q62226, residues 25-198: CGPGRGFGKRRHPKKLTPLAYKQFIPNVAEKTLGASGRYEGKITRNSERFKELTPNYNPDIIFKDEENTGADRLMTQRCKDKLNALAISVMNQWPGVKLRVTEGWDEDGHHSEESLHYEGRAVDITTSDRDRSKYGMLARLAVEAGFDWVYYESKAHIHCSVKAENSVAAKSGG
# UniProt P23284, residues 34-216: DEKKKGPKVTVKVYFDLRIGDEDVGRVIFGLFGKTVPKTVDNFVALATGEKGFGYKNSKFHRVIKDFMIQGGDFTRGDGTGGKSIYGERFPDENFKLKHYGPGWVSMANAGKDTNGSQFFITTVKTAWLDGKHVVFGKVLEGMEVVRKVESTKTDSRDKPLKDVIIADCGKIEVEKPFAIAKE
# UniProt O15260: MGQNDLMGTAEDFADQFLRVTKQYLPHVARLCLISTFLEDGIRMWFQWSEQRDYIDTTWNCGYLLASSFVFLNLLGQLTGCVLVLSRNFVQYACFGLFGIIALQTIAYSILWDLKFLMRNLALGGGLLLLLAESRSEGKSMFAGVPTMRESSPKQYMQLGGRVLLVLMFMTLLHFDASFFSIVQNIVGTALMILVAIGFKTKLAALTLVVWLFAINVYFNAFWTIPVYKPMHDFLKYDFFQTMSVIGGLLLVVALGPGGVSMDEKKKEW
# These are yes or no findings as the source states them, for the method shown. Binding seen in cells or lysates may run through a third protein. Here binding means that the protein was enriched with, or labelled near, the bait; the list need not be complete.
# B1: vacuolar protein sorting-associated protein 51 homolog (VPS51) (protein, UniProt Q9UID3 1-782)
# chain: MAAAAAAGPSPGSGPGDSPEGPEGEAPERRRKAHGMLKLYYGLSEGEAAGRPAGPDPLDPTDLNGAHFDPEVYLDKLRRECPLAQLMDSETDMVRQIRALDSDMQTLVYENYNKFISATDTIRKMKNDFRKMEDEMDRLATNMAVITDFSARISATLQDRHERITKLAGVHALLRKLQFLFELPSRLTKCVELGAYGQAVRYQGRAQAVLQQYQHLPSFRAIQDDCQVITARLAQQLRQRFREGGSGAPEQAECVELLLALGEPAEELCEEFLAHARGRLEKELRNLEAELGPSPPAPDVLEFTDHGGSGFVGGLCQVAAAYQELFAAQGPAGAEKLAAFARQLGSRYFALVERRLAQEQGGGDNSLLVRALDRFHRRLRAPGALLAAAGLADAATEIVERVARERLGHHLQGLRAAFLGCLTDVRQALAAPRVAGKEGPGLAELLANVASSILSHIKASLAAVHLFTAKEVSFSNKPYFRGEFCSQGVREGLIVGFVHSMCQTAQSFCDSPGEKGGATPPALLLLLSRLCLDYETATISYILTLTDEQFLVQDQFPVTPVSTLCAEARETARRLLTHYVKVQGLVISQMLRKSVETRDWLSTLEPRNVRAVMKRVVEDTTAIDVQVGLLYEEGVRKAQSSDSSKRTFSVYSSSRQQGRYAPSYTPSAPMDTNLLSNIQKLFSERIDVFSPVEFNKVSVLTGIIKISLKTLLECVRLRTFGRFGLQQVQVDCHFLQLYLWRFVADEELVHLLLDEVVASAALRCPDPVPMEPSVVEVICERG
# B2: betaine-homocysteine S-methyltransferase (BHMT) (enzyme, UniProt Q93088 1-406)
# chain: MPPVGGKKAKKGILERLNAGEIVIGDGGFVFALEKRGYVKAGPWTPEAAVEHPEAVRQLHREFLRAGSNVMQTFTFYASEDKLENRGNYVLEKISGQEVNEAACDIARQVADEGDALVAGGVSQTPSYLSCKSETEVKKVFLQQLEVFMKKNVDFLIAEYFEHVEEAVWAVETLIASGKPVAATMCIGPEGDLHGVPPGECAVRLVKAGASIIGVNCHFDPTISLKTVKLMKEGLEAARLKAHLMSQPLAYHTPDCNKQGFIDLPEFPFGLEPRVATRWDIQKYAREAYNLGVRYIGGCCGFEPYHIRAIAEELAPERGFLPPASEKHGSWGSGLDMHTKPWVRARARKEYWENLRIASGRPYNPSMSKPDGWGVTKGTAELMQQKEATTEQQLKELFEKQKFKSQ
# Biological target: 3xHA-tagged ShhN (ShhN^1-198-HA) (not stated (human or mouse cDNA cloned)) (UniProt Q62226)
# Assay: affinity purification with mass spectrometry; lysates of HEK293T cells transfected with ShhN-HA (controls: untransfected cells, IGF2-HA) incubated with beads conjugated with HA antibodies; eluted proteins trypsin digested and analysed by mass spectrometry
row,binding,Molecule
1,binds,peptidyl-prolyl cis-trans isomerase B (PPIB) (from UniProt P23284 34-216) (enzyme)
2,binds,"Surfeit locus protein 4 (SURF4), endogenous (from UniProt O15260 1-269) (receptor)"
3,binds,B1
4,binds,B2
